Measurements reported in article PMC7251119.
Results are given in words; binding and its absence hold for the method and conditions named.

Molecular target: SetA(1-644) (Legionella pneumophila) (UniProt Q5ZU30)
Assay: SEC; […]; 20 mM Tris-HCl (pH 7.5) plus 100 mM NaCl or 300 mM NaCl; […]; both purified

B1: SetA(1-644) (protein, UniProt Q5ZU30 1-644)
chain: MYKIYSYLGWRIDMKTENLPQAGQEAQIDKKIHFIWVGHIMPQKNIQVVSEWAEKNPGYETIIWVDKKIAPAKELDLFILDMKSKGITVKDINEEGVCRDSIRHELDQESPNYGMVSDMLRLNILAAEGGIYLDSDILCSAPFPDEIYAPFGFLLSPWSQGANNTLCNDIILCSKGNQIIQQLADAIEQSYIARDSFEFTHEYASMKETKGERIAKTLGVTGPGFLFHQLKKMGILNDKSEMEAIHWELQDQRYLIDGSVKEPDYFYVPQNNTNDASWVPSIKRPGIENMSFQERLENAVQLIAFDIQKTGLFNLDHYANELKVKQNSWCIAAETSPELKPDSYLLIRPRDKTGEWTLYYVDEDKKLNPVTLPVIKGAIKLSEVSDPLRKFHTLLSQVSDPVNPTAHELKQIGRALIELKPRQDEWHCKNKWSGAEEIAQELWQRITSNETLRAQIKQCFTQFESLKPRVAELGLTRASGAGTEVEAHESTVKEQEIISQNTVGEEGTKEKNSVQLASENSSDEKIKTAHDLIDEIIQDVIQLDGKLGLLGGNTRQLEDGRVINIPNGAAMIFDDYKKYKQGELTAESALESMIKIAKLSNQLNRHTFFNQRQPETGQFYKKVAAIDLQTTIAAEYDNNHGLRI
- binding: no binding
